Assay results taken from patent publication US8790883B2, “Methods of identifying NF-κB inhibitors” (priority 2003, dated 2014).

System: LPS-induced NF-κB activation
Experiment: More stringent NF-κB inhibition assay, second procedure: peptide internalization, washing, 24 h growth, then LPS
Assay type: cell-based, murine
Details: 10 μM peptide
Description: Left panels show a helical wheel diagram of CC2 (A) and LZ (B) peptides. The view is from the top the molecule. The (a) through (g) positions, which are an essential feature of coiled coil sequence (Vinson, 2002, Mol. Cell. Biol.) represent sequential positions in each peptide sequence. The first (a) and fourth (d) positions that are generally occupied by hydrophobic amino acids constitute the hydrophobic core for parallel as well as antiparallel-coiled coils. […] NF-κB activity was measured using the β-galactosidase assay. […]
(A) Sequence alignment of the NEMO-derived LZ (residues 301-336 of SEQ ID NO: 12) and the GCN4 peptides (residues 23-55 of SEQ ID NO:8). […] NF-κB activity was measured using the b-galactosidase assay. […]

Substance: B-CRQIKIWFQNRRMKWKKSKGMQRMKQLEDKVEELLSKNYHLENEVARLKKLVGER (BODIPY label) [BODIPY-Ant-GCN4 (WT), reference compound]
- Effect on LPS-induced NF-κB activation: no ability to inhibit NF-κB activation
